# Assay results reported in PubChem BioAssay AID485349 (National Center for Advancing Translational Sciences (NCATS), 2010).
# In all, about 320,000 compounds went through this assay and about 620 (0.19%) were called active. This list was built around the results that the source calls inconclusive (neither active nor inactive); the mix of calls is not that of the screen. Calls come from the whole dose curve; as a rule, active = well fitted activation curve with a large enough effect; inconclusive = small, poorly fitted or top-dose-only effect; inactive = no such curve, though single readings can be large or run the other way. Where the call is inconclusive, the potency comes from a doubtful curve fit.
# Assay: qHTS Assay for Identifying a Potential Treatment of Ataxia-Telangiectasia; note: nearly all actives have a fitted effect of over 45% in size
# Details: […] A-T fibroblasts, KAP-1 phosphorylation AlphaLISA, neocarzinostatin DNA damage 30 min before lysis; series mostly up to 57.5 µM
# Procedure, shortened: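 hTERT-immortalized A-T patient fibroblasts ([…]), 500 cells/well in OPTI-MEM, 1% FBS, got compounds for 60 min, then NCS for 30 min at 37C. Lysates were then assayed for phospho-KAP-1 by AlphaLISA (anti-pKAP1 donor, anti-KAP1 acceptor beads), 6 hr at 25C.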
# Potency is the fitted concentration of half-maximal effect.
row,Structure (SMILES),Potency
1,Cc1ccc(SCCCn2cncn2)cc1,inactive
2,CCCCCCN(C(=O)CCCCCN1C(=O)NC(c2ccc(Cl)cc2)C(C(=O)OCc2ccccc2)=C1C)C(C(=O)NCCCC)c1ccc(OCC(=O)OC)c(C(=O)OC)c1 (configuration not stated),"inconclusive: 28.2 µM [activator, single point]"
3,COc1ccc(C2c3ccc(O)cc3Oc3ncn(CCCO)c(=N)c32)cc1 (configuration not stated),active: 25.1 µM
4,COc1ccc(/C=N/NC(=O)c2[nH]c3ccc(Cl)cc3c2-c2ccccc2)c(C(=O)O)c1OC,inactive
5,COc1cc(C2C3C(=O)N(c4ccc(F)cc4)C(=O)C3ON2c2ccccc2)ccc1O (configuration not stated),inactive
6,CC(C)(CCl)C(=O)Nc1ccnc(-c2ccncc2)n1,"inconclusive: 39.8 µM [activator, partial curve]"
7,O=C(Nc1c(C(=O)NCc2ccco2)cnn1-c1ccccc1)c1cccc(F)c1,"inconclusive: 25.1 µM [activator, partial curve, poor fit]"
8,COc1ccccc1NC(=O)CN1C(=O)C(C)Oc2ccccc21 (configuration not stated),"inconclusive: 44.7 µM [activator, partial curve, poor fit]"
9,CC1CC(NC(=O)c2cc3c(=O)n4ccccc4nc3n2C)CC(C)(C)C1 (configuration not stated),active: 28.2 µM
10,COC(=O)c1ccc(C23CC4(C2)[C@H](CN(Cc2ccc(C(F)(F)F)cc2)[C@@H]4c2ccccc2)C3c2ccccc2)cc1 (some centres not stated),active: 39.8 µM
11,COC(=O)c1ccccc1-c1c2ccc(=N)cc-2oc2cc(N)ccc12,"inconclusive: 28.2 µM [activator, partial curve]"
12,COc1ccc2c(c1)NC(c1ccc(N(C)C)cc1)c1cccn1-2 (configuration not stated),"inconclusive: 25.1 µM [activator, partial curve]"
13,Cc1c(Cl)ccc2sc(NC(=O)c3ccco3)nc12,"inconclusive: 20 µM [activator, partial curve]"
14,CCn1cnc2sc(C(=O)Nc3ccc4c(c3)OCO4)c(C)c2c1=O,inactive
15,O=C(c1oc(=O)c2ccccc2c1-c1ccccc1)N1CCC(O)CC1,"inconclusive: 17.8 µM [activator, partial curve]"
16,CCOc1c2ccccc2nn1CCO,"inconclusive: 12.6 µM [activator, partial curve]"
17,Cn1c(CNC(=O)OC(C)(C)C)nnc1SCc1c(Cl)cccc1Cl,"inconclusive: 0.708 µM [activator, full curve, poor fit]"
18,CCC(C)Sc1cc(-c2nc3ccccn3c2NC2CCCCC2)ccc1OC (configuration not stated),active: 31.6 µM
19,Cc1occc1C(=O)Nc1ccc2c(c1)OCO2,inactive
20,C#CCOCCOCCOCCNc1nc(N2CCN(C(=O)[C@H]([C@@H](C)CC)n3cc([C@@H](N)CO)nn3)CC2)nc(N2CCN(C(=O)[C@H]([C@@H](C)CC)n3cc([C@@H](N)CO)nn3)CC2)n1,active: 39.8 µM
21,O=c1cc2c(nn1Cc1ccc(Cl)cc1Cl)-c1ccccc1CC2,inactive
22,O=C(Cc1ccc2c(c1)OCCO2)N1CCN(S(=O)(=O)c2cccs2)CC1,inactive
23,COc1ccc(CN(C(=O)c2cc(=O)c3ccccc3o2)C2CCS(=O)(=O)C2)cc1 (configuration not stated),inactive
24,C=CCn1c(=N)n(CC(=O)c2ccc(Br)cc2)c2ccccc21,"inconclusive: 31.6 µM [activator, partial curve]"

# In a second layout: 3 of the compounds above.
row	Structure (SMILES)	Potency
1	Cc1ccc(SCCCn2cncn2)cc1	inactive
9	CC1CC(NC(=O)c2cc3c(=O)n4ccccc4nc3n2C)CC(C)(C)C1 (configuration not stated)	active: 28.2 µM
12	COc1ccc2c(c1)NC(c1ccc(N(C)C)cc1)c1cccn1-2 (configuration not stated)	inconclusive: 25.1 µM [activator, partial curve]

# (further entries)

row,Structure (SMILES),Potency
1,CCOC(=O)Cc1nnn(CC(=O)OCC)n1,"inconclusive: 44.7 µM [activator, partial curve, poor fit]"
2,Cc1cccc(-c2oc3ccccc3c2C#CCCCCO)c1,"inconclusive: 22.4 µM [activator, single point]"
3,Cc1ccc(OCCNCC(O)COc2ccccc2)cc1 (configuration not stated),"inconclusive: 8.91 µM [activator, partial curve]"
4,N=c1oc2c3c4c(cc2cc1C(=O)Nc1ccccc1)CCCN4CCC3,active: 15.8 µM
5,CCCCn1c(O)c(N=Nc2ccccc2O)c2ccccc21,"inconclusive: 14.1 µM [activator, partial curve]"
6,CNC(=O)/C=C/c1cc(C(=O)c2ccc(Cl)cc2Cl)cn1C,"inconclusive: 5.01 µM [activator, single point]"
7,CCc1nnc(NC(=O)C(CC)c2ccccc2)s1 (configuration not stated),inactive
8,O=[N+]([O-])c1ccc(C2=NN(c3ccccc3)C(c3ccco3)C2)cc1 (configuration not stated),"inconclusive: 0.708 µM [activator, full curve, poor fit]"
9,COc1ccc2c(c1)sc1nc(-c3ccccc3)cn12,"inconclusive: 22.4 µM [activator, partial curve]"
10,C=CCN1C(=O)/C(=C/C(=O)OC)S/C1=N\NC(=O)c1ccccc1,active: 10 µM
11,COC1=C(N)C(=O)c2nc(-c3nc(C(=O)O)c(C)c(-c4ccc(OC)c(OC)c4O)c3N)ccc2C1=O,active: 0.708 µM
12,COc1ccc(NC(=O)Cn2cc(C(=O)c3ccncc3)c(=O)c3cc(C)ccc32)cc1Cl,active: 28.2 µM
13,CCCNC(=O)c1ccc2c(c1)nc(C)n2-c1cccc(C)c1,"inconclusive: 1.58 µM [activator, partial curve]"
14,Cn1cc(C(CO)Cc2ccccc2)c2ccccc21 (configuration not stated),inactive
15,COc1ccccc1[C@H]1C(c2cccc(Cl)c2)=NN(c2ccccc2)[C@@H]1CO,active: 10 µM
16,CCNC(=S)N(CCc1c(C)[nH]c2ccccc12)Cc1cccnc1,"inconclusive: 0.708 µM [activator, full curve, poor fit]"
17,O=[N+]([O-])c1cccnc1Oc1ccc(OCc2ccccc2)cc1,"inconclusive: 7.08 µM [activator, single point]"
18,OC(CN1CCOCC1)Cn1c2ccccc2c2ccccc21 (configuration not stated),"inconclusive: 11.2 µM [activator, partial curve]"
19,COc1ccc(C2=NO[C@@H]3C(=O)N(Cc4ccccc4)C(=O)[C@H]23)c(OC)c1,"inconclusive: 25.1 µM [activator, partial curve, poor fit]"
20,COc1ccc(Nc2cc(C(=O)N3CCc4ccccc4C3)c3ccccc3n2)c(OC)c1,inactive
21,CCC(=O)c1ccc2c(c1)OCCO2,active: 10 µM
22,CCOc1ccccc1C(=O)Nc1cc(OC)ccc1OC,"inconclusive: 31.6 µM [activator, single point]"
23,COc1ccccc1N1CC=C(c2cccc([N+](=O)[O-])c2)NC1=O,"inconclusive: 3.55 µM [activator, partial curve]"
24,CCOc1ncccc1C(=O)N(CC)CC(=O)Nc1ccc(NC(C)=O)cc1,"inconclusive: 39.8 µM [activator, single point]"

row,Structure (SMILES),Potency
1,CC1SC(c2ccc(F)cc2)N(CCc2ccccc2)C1=O (configuration not stated),"inconclusive: 3.16 µM [activator, partial curve]"
2,CCSc1nc2ccccc2n1C(=O)/C=C/c1ccc(OC)c(OC)c1,active: 22.4 µM
3,COc1ccc(C2CC(c3cccs3)=NN2c2ccc(C=O)cc2)cc1 (configuration not stated),active: 25.1 µM
4,CC(C(=O)NCCCc1ccccc1)n1cccc1C(=O)c1ccccc1 (configuration not stated),inactive
5,CCOC(=O)c1cc(C)[nH]c(=O)c1C#N,"inconclusive: 3.55 µM [activator, partial curve]"
6,COC(=O)C1CN(C(=O)C(C)Oc2ccc(C(C)C)cc2)c2ccccc2O1 (configuration not stated),"inconclusive: 39.8 µM [activator, single point]"
7,C=CCN1C(=O)S/C(=C/c2ccc(Sc3nc4ccccc4[nH]3)o2)C1=O,inactive
8,O=C(COC(=O)CCN1C(=O)C2CC=CCC2C1=O)Nc1ccc(Cl)cc1F (configuration not stated),inactive
9,N#Cc1c(-c2cccnc2)c2c([nH]c1=O)-c1ccccc1OC2,"inconclusive: 25.1 µM [activator, partial curve]"
10,CCOC(=O)c1ccc(-c2ccc3c(c2)CCC3)nc1C,"inconclusive: 39.8 µM [activator, single point]"
11,Cc1ccc2nc(N(CCCN(C)C)C(=O)c3ccc(S(=O)(=O)N4CCc5ccccc5C4)cc3)sc2c1,"inconclusive: 25.1 µM [activator, single point]"
12,CC(Sc1nnc(NC2CCCCC2)s1)C(=O)Nc1ccc2c(c1)C(=O)c1ccccc1C2=O (configuration not stated),inactive
13,Cc1cc(C)nc(SCC(=O)Nc2cc(C)on2)n1,"inconclusive: 3.16 µM [activator, partial curve]"
14,Cc1cccc(C)c1N=Nc1c(C)cc(O)cc1C,"inconclusive: 22.4 µM [activator, single point]"
15,C=CCn1c(=N)n(CC(=O)OCC)c2ccccc21,inactive
16,O=C(O)c1cc(-c2ccc(Cl)cc2)n(-c2ccc(F)cc2)n1,"inconclusive: 8.91 µM [activator, full curve, poor fit]"
17,Cc1cccc2c(N=O)c(O)[nH]c12,active: 3.16 µM
18,Fc1ccc(N2N=C(c3cccs3)CC2c2ccco2)c(F)c1 (configuration not stated),active: 28.2 µM
19,Cc1cc(C2=CC(C)(c3cc(C)oc3C)Nc3nc(C(F)(F)F)nn32)c(C)o1 (configuration not stated),"inconclusive: 39.8 µM [activator, single point]"
20,CCOC(=O)N(C)OC(=O)Nc1ccc(Cl)c(Cl)c1,inactive
21,CC(C)(C=O)Cc1cc(C(C)(C)C)c(O)c(C(C)(C)C)c1,"inconclusive: 39.8 µM [activator, single point]"
22,CCCCNc1c(-c2ccc(SC3CCCCC3)cc2)nc2ccccn12,"inconclusive: 20 µM [activator, partial curve]"
23,CC1Cc2ccccc2N1C(=O)COC(=O)c1ccc([N+](=O)[O-])o1 (configuration not stated),"inconclusive: 7.08 µM [activator, partial curve]"
24,O=C1c2ccccc2C(=O)N1OCc1c(F)cccc1Cl,"inconclusive: 4.47 µM [activator, single point]"
